{"source": "paper PMC12672779", "target": "cardiac troponin I (UniProt P19429)", "test": "fluorescence turn-on of QD-SPION-aptamer sensor", "settings": "2-40 ng/mL troponin I, LOD 13.3 ng/mL (not a Kd); C6 spacer (position and terminal group not stated); coupled to CdSe/ZnS QD-SPION conjugate by EDC/NHS; Tris-HCl buffer (concentration and pH not stated), 30 min rotation at room temperature (selectivity assay); aptamer coupling in MES pH 5.8; label: none on the DNA, QD fluorescence as read-out; single-stranded DNA", "note": "Construct, isoform or probe ends are uncertain for at least one entry.", "data": [{"sequence": "CGTGCAGTACGCCAACCTTTCTCATGCGCTGCCCCTCTTA [Tro4 aptamer]", "values": [{"measurement": "binding result", "result": "binds"}]}]}
